Assay results: the supplement of paper PMC11237882
The list shows a part of the results. Values are worked out from sequencing counts and are noisy.

Molecular target: T1, Homer1 EVH1 domain
T1 chain: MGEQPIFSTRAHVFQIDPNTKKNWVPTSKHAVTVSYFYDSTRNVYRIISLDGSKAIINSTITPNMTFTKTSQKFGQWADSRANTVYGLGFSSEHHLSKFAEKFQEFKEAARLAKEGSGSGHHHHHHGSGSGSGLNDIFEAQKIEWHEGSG
Experiment: enrichment score (AUC of log2 frequency ratio across FACS sorting rounds) (log2 AUC); higher = stronger enrichment for Homer1 EVH1 binding

Row | Binder | enrichment score
1 | PLGGHTVWQVVFIAFLTGILALVTIIGNILVIVSFK | 4.11
2 | NNQKYNFFTFLPGVLFNQFKYFFNLYFLLLACSQFV | 3.19
3 | FLAGAATFSIIVNTVLLIVEWITHQFCAMALTLTLC | -0.488
4 | WIRNLDDELHAIIAGFLAGISMMFYKSTTISMYLAS | -0.0605
5 | ADLAKVIQTKSTQCLSYPLTIATLLTSASWCLYGLR | 3.52
6 | SDLPQLVAAFHSLVGLAAVLTCIAEYIIEYPHFATD | -0.149
7 | MSPRGTGCSAGLLMTVGWLLLAGLQSARGTNVTAAG | -0.973
8 | REDIRSIEGKFGTGIQSYFSFLRFLVLLNLVIFLII | 1.04
9 | NVTLLSKQAKFAYKDEYEKFKLYLTIILILISFACR | -0.392
10 | LHVYQAYWKAVGQGLALAILFSLLLMQATRNAADWW | 2.65
11 | PDTRTREASENSGTRSRAWLAVALGAGGAVLLLLWG | 0.0518
12 | RIFTVPVHNSSFIPLFLIFAMLLPQIPVQFAQCRWF | 3.65
13 | FPQSSSIVIFLLFFLYGLSSVFFALMLTPLFKKSKH | 3.46
14 | LLYIWQVYSCYFLYATYGTLAFLFSPLRTWLTLLTP | 1.25
15 | SVTGVHMKILPFVAQGGVATDFFIFFCIISFSTFIY | 0.273
16 | KITSKHVKMMLSGVCLFAVFIALLPILGHRDYKIQA | 1.06
17 | MGYARKVGWVTAGLVIGARACYCIYRLTRGRKQNKE | 3.2
18 | AALMSRWKATRIFSYGYGRIEILSGFINGLFLIVIA | -1.96
19 | IVLTAGVILLLAGILVLIPVCWTAHAIIQDFYNPLV | 1.13
20 | EDVAVAAAVLESLLKLALLAGLTITVFGFAYSQLAL | 4.01
21 | FALCALNALTTTVCLVAAALRYLQIFATRRSCIDES | 2.18
22 | WYERFVQPCLVELLGSALFIFIGCLSVIENGTDTGL | 2.36
23 | GFEYAILMTMVLTIFIKYVLHSVDLQSENPWDNKAG | 3.49
24 | PEGRPRSRHGNGGLAALPYLRLRHPLSVLGINYQQF | -0.955
25 | LMALCLMALPFIPASNLFFPVGFVVAERVLYVPSMG | 0.25
26 | LLEDSCHYLLYSLIFVNSYPVTMSIFPVLLFSLLHA | 1.46
27 | CPLFSGIGYASVVIVSLLNVYYIVILAWATYYLFQS | -1.32
28 | SWKNVRKNVDTYNPWDRLSVAVISPYLQCVLWIFLL | -0.753
